{
  "source": "PubChem BioAssay AID504834",
  "about": "(National Center for Advancing Translational Sciences (NCATS), 2011)",
  "note": "The campaign covered roughly 320,000 compounds. About 22,000 (6.9%) were called active. This list was built around the results that the source calls inconclusive (neither active nor inactive); the mix of calls is not that of the screen. Calls follow the shape of the dose curve; as a rule, active = well fitted inhibition curve with a large enough effect; inconclusive = small, poorly fitted or top-dose-only effect, or another doubt; inactive = no such curve, though single readings can be large or run the other way. Where the call is inconclusive, the potency comes from a doubtful curve fit. % is scaled to controls: 0 for no effect and ±100 for the full control effect; potency is read from the fitted curve at half-maximal effect.",
  "data": [
    {"experiment": "Primary qHTS for delayed death inhibitors of the malarial parasite plastid, 96 hour incubation", "conditions": "P. falciparum luciferase reporter growth; series mostly up to 28.7 µM; activity change, negative = inhibition: at the top concentration", "in_short": "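P. falciparum expressing integrated firefly luciferase, in erythrocytes at 2% hematocrit, 0.05% parasitemia, incubated with compounds 96 h at 37 C, 5% CO2. Growth inhibition read as loss of luminescence; two-generation exposure targets delayed-death apicoplast inhibitors.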", "values": [
      {"compound": "CN(C)/C=C/C(=O)c1ccc(F)cc1F", "activity change, negative = inhibition": "inactive: 19.9%"},
      {"compound": "Cc1cc(C(=O)N2CCCC(C(=O)c3cccc(C(F)(F)F)c3)C2)nc(C)n1", "note": "(stereo unspecified)", "Potency": "inconclusive: 0.738 µM [inhibitor, full curve, poor fit]"},
      {"compound": "Oc1ccccc1CNCCCNCc1ccccc1O", "activity change, negative = inhibition": "inactive: 238%"},
      {"compound": "COc1ccc(CCNC(=O)C2CCN(Cc3nc(-c4cccc(Cl)c4)oc3C)CC2)cc1OC", "Potency": "inconclusive: 18.5 µM [inhibitor, single point]"},
      {"compound": "CC1(C)SC(=S)N(/N=C/c2ccc(O)cc2)C1N(O)C(=O)Nc1ccc([N+](=O)[O-])cc1", "note": "(stereo unspecified)", "Potency": "inconclusive: 16.5 µM [inhibitor, single point]"},
      {"compound": "Cc1cc(=O)oc2cc(OC(C)C(=O)NC3CCCC3)ccc12", "note": "(stereo unspecified)", "Potency": "inconclusive: 9.28 µM [inhibitor, partial curve]"},
      {"compound": "c1ccc(-n2cc(CN3CCCC3)c(-c3ccc4c(c3)OCO4)n2)cc1", "Potency": "inconclusive: 18.5 µM [inhibitor, single point]"},
      {"compound": "CC(Oc1ccc(Br)cc1)C(=O)Nc1ccc(S(=O)(=O)N(C)C2CCN(C)CC2)cc1", "note": "(stereo unspecified)", "Potency": "inconclusive: 18.5 µM [inhibitor, single point]"},
      {"compound": "O=C(NCc1ccc(F)cc1)c1c2c(nc3ccccc13)CCC2", "activity change, negative = inhibition": "inactive: 18.5%"},
      {"compound": "COc1ccc(CCNC(=O)C(=O)NCC2CCCN2S(=O)(=O)c2ccccc2)cc1OC", "note": "(stereo unspecified)", "Potency": "inconclusive: 13.1 µM [inhibitor, partial curve]"},
      {"compound": "COc1cc(Cl)ccc1OCc1cc(C(=O)N2C[C@]3(C)C[C@H]2CC(C)(C)C3)no1", "activity change, negative = inhibition": "inactive: 28.6%"},
      {"compound": "COc1cccc(CNC(=O)CN2C(=O)CSc3ccc(S(=O)(=O)N4CCOCC4)cc32)c1", "activity change, negative = inhibition": "inactive: 14.4%"},
      {"compound": "O=C(Nc1cc(Cl)ccc1O)c1snnc1-c1ccccc1", "Potency": "active: 11.7 µM"},
      {"compound": "COc1ccc(C(=O)c2cc([N+](=O)[O-])ccc2N2CCCC2)cc1", "activity change, negative = inhibition": "inactive: -13.5%"},
      {"compound": "O=C(CCCCCNC(=O)N1CCn2c1nc1ccccc12)NCCc1ccccc1", "Potency": "active: 7.38 µM"},
      {"compound": "Cc1nc(NC(=O)c2ccc(Cl)cc2)sc1Cc1ccc2c(c1)OCO2", "Potency": "inconclusive: 18.5 µM [inhibitor, single point]"},
      {"compound": "O=C(COC(=O)c1ccc(O)cc1)Nc1cccc(S(=O)(=O)N2CCCCC2)c1", "Potency": "inconclusive: 1.47 µM [inhibitor, full curve]"},
      {"compound": "COc1cccc(CNCCc2c[nH]c3ccccc23)c1OCc1ccccc1F", "Potency": "inconclusive: 18.5 µM [inhibitor, single point]"},
      {"compound": "Cc1cc(Cl)ccc1NC(=O)C1CCN(S(C)(=O)=O)CC1", "activity change, negative = inhibition": "inactive: 93%"},
      {"compound": "CC(NC(=S)Nc1ccc(OC(F)F)c(Cl)c1)C(C)(C)C", "note": "(stereo unspecified)", "Potency": "inconclusive: 18.5 µM [inhibitor, single point]"},
      {"compound": "CC(/C=N/n1c(-c2ccc(C)cc2)n[nH]c1=S)=C\\c1ccco1", "activity change, negative = inhibition": "inactive: 7.06%"},
      {"compound": "CCOC(=O)C1=NNC2C(=O)N(C3CCCCC3)C(=O)C12", "note": "(stereo unspecified)", "activity change, negative = inhibition": "inactive: 85.6%"},
      {"compound": "CC(C)CN(CCCNC(=O)CN1C(=O)COc2ccc(S(=O)(=O)N3CCCC3)cc21)CC(C)C", "Potency": "inconclusive: 0.0415 µM [inhibitor, full curve, poor fit]"},
      {"compound": "COc1ccc(OC)c(Cc2nnc(CCC(=O)NC3CCCCCCC3)o2)c1", "Potency": "inconclusive: 18.5 µM [inhibitor, single point]"},
      {"compound": "O=C(CSc1nccn1Cc1ccc(F)cc1)NC1CCCC1", "activity change, negative = inhibition": "inactive: 7.79%"},
      {"compound": "O=S(=O)(Nc1ccc(-c2ccc(N3CCOCC3)nn2)cc1)c1ccc(Cl)c(Cl)c1", "Potency": "inconclusive: 10.4 µM [inhibitor, partial curve, poor fit]"},
      {"compound": "CCOc1ccccc1NC(=O)CSc1ccc([N+](=O)[O-])cc1", "Potency": "active: 2.33 µM"},
      {"compound": "Cc1cccc(N(CC(=O)Nc2ccccc2-c2ccccc2)S(=O)(=O)c2ccccc2)c1C", "activity change, negative = inhibition": "inactive: 7.57%"},
      {"compound": "COc1cccc(Cn2c(OCC3CCCO3)nc3c2c(=O)n(C)c(=O)n3C)c1", "note": "(stereo unspecified)", "Potency": "inconclusive: 11.7 µM [inhibitor, single point]"},
      {"compound": "COc1cccc(OCCNc2cc(Cl)ccc2[N+](=O)[O-])c1", "Potency": "inconclusive: 11.7 µM [inhibitor, single point]"},
      {"compound": "O=C(Nc1ccc(Br)cc1)C1Cc2ccccc2O/C1=N\\O", "note": "(stereo unspecified)", "Potency": "inconclusive: 7.38 µM [inhibitor, partial curve]"},
      {"compound": "Nc1nc(NCC2CCCO2)nc(Nc2ccc(Cl)cc2)c1[N+](=O)[O-]", "note": "(stereo unspecified)", "Potency": "inconclusive: 5.22 µM [inhibitor, partial curve]"},
      {"compound": "O=C1c2ccccc2C2=Nc3ccccc3SC(c3cccc(F)c3)C12", "note": "(stereo unspecified)", "Potency": "inconclusive: 1.65 µM [inhibitor, single point]"},
      {"compound": "COc1ccc(-c2c(C)c3cc(O)ccc3oc2=O)cc1", "Potency": "inconclusive: 10.4 µM [inhibitor, single point]"},
      {"compound": "Cc1ccc(NC(=O)/C(CN(C)C)=N\\O)cc1", "activity change, negative = inhibition": "inactive: 5.75%"},
      {"compound": "Cc1cccc(C(=O)NCCC(=O)Nc2ccc(F)c([N+](=O)[O-])c2)c1", "activity change, negative = inhibition": "inactive: -23.9%"},
      {"compound": "O=C1Cc2cc(NS(=O)(=O)c3ccc([N+](=O)[O-])cc3)cc3c2N1CCC3", "activity change, negative = inhibition": "inactive: 9.62%"},
      {"compound": "CC(=O)Nc1ccc(N=Cc2c(O)ccc3ccccc23)cc1", "Potency": "inconclusive: 18.5 µM [inhibitor, single point]"},
      {"compound": "O=C(c1cccc(F)c1)N1CCN(C(=O)C2CC2)CC1", "Potency": "active: 0.329 µM"},
      {"compound": "COc1ccc(C)cc1Nc1nc(C)nc2c1oc1ccccc12", "Potency": "inconclusive: 18.5 µM [inhibitor, single point]"},
      {"compound": "O=C1N/C(=N/NC(=O)c2cccc3ccccc23)S/C1=C\\c1ccccc1OCc1ccccc1", "Potency": "inconclusive: 0.522 µM [inhibitor, full curve, poor fit]"},
      {"compound": "COC(=O)c1c(C(=O)OC)c(-c2ccc(OC)cc2)n2c1CS(=O)(=O)C2", "Potency": "inconclusive: 4.65 µM [inhibitor, partial curve, poor fit]"},
      {"compound": "c1ccc(-c2csc(Nc3nc(N4CCOCC4)nc(N4CCOCC4)n3)n2)cc1", "activity change, negative = inhibition": "inactive: -11.1%"},
      {"compound": "CC(C)(C)c1ccc(C(=O)NC(=O)COC(=O)CCS(=O)(=O)c2ccccc2)cc1", "activity change, negative = inhibition": "inactive: 48.8%"},
      {"compound": "Cc1cc(C)cc(N(C(=O)Cc2cccs2)C(C(=O)NC2CCCCC2)c2ccccn2)c1", "note": "(stereo unspecified)", "Potency": "inconclusive: 16.5 µM [inhibitor, partial curve, poor fit]"},
      {"compound": "CC(=O)CSc1nc2cc3c(cc2cc1C#N)OCCO3", "activity change, negative = inhibition": "inactive: 167%"},
      {"compound": "Cc1cc(S(=O)(=O)Nc2ccc(C(=O)NCc3cccnc3)cc2)ccc1F", "activity change, negative = inhibition": "inactive: -20.7%"},
      {"compound": "Cc1ccc(CC2C(=O)N(c3ncccn3)C(=O)C2C)cc1", "note": "(stereo unspecified)", "Potency": "active: 0.828 µM"},
      {"compound": "Fc1ccc(-c2csc3ncnc(Cl)c23)cc1", "Potency": "inconclusive: 0.262 µM [inhibitor, full curve, poor fit]"},
      {"compound": "O=c1oc2ccc([N+](=O)[O-])cc2c(N2CCOCC2)c1[N+](=O)[O-]", "activity change, negative = inhibition": "inactive: 391%"},
      {"compound": "Cc1cc(C)cc(NC(=O)NC2CCCCCCC2)c1", "Potency": "inconclusive: 18.5 µM [inhibitor, single point]"},
      {"compound": "FC(F)(F)c1ccccc1CN1CCN(Cc2ccccc2)CC1", "activity change, negative = inhibition": "inactive: 34.9%"},
      {"compound": "O=C(NN=C1CCCC1)c1n[nH]c2c1CCCC2", "activity change, negative = inhibition": "inactive: 1.26%"},
      {"compound": "CCOC(=O)C1CCN(C(=O)C2CCN(S(=O)(=O)c3cccc4cccnc34)CC2)CC1", "Potency": "inconclusive: 10.4 µM [inhibitor, single point]"},
      {"compound": "CCOC(=O)CC(=O)CSc1nc2c(cc1C#N)CCCCCC2", "Potency": "active: 1.17 µM"},
      {"compound": "O=C(NNC(=O)c1ccccc1O)c1ccc(NS(=O)(=O)c2ccc(F)cc2)cc1", "Potency": "inconclusive: 3.7 µM [inhibitor, single point]"},
      {"compound": "COc1ccc(-c2nnc(OCc3ccccc3)c3ccccc23)cc1", "Potency": "inconclusive: 6.57 µM [inhibitor, partial curve, poor fit]"},
      {"compound": "O=C(Cc1cccc(C(F)(F)F)c1)Nc1ccc(S(=O)(=O)N2CCCC2)cc1", "Potency": "inconclusive: 18.5 µM [inhibitor, single point]"},
      {"compound": "Cc1ccc(N2C(=O)Nc3ccc(Br)cc3C2(O)C(=O)NCCN(C)C)cc1C", "note": "(stereo unspecified)", "Potency": "inconclusive: 3.29 µM [inhibitor, full curve]"},
      {"compound": "Cc1ccc(SCC(=O)NCc2ccncc2)cc1", "activity change, negative = inhibition": "inactive: 85.6%"},
      {"compound": "O=C(c1cc(-c2ccccc2)nc2ccccc12)N1CCOCC1", "Potency": "inconclusive: 18.5 µM [inhibitor, single point]"},
      {"compound": "CN(C)CCn1c2ccccc2c2nc3ccc([N+](=O)[O-])cc3cc21", "Potency": "inconclusive: 1.47 µM [inhibitor, full curve]"},
      {"compound": "Cc1ccc(N2CSC3=C(C#N)C(c4cccs4)CC(=O)N3C2)cc1", "note": "(stereo unspecified)", "Potency": "active: 14.7 µM"},
      {"compound": "CCOc1ccc(-n2nc(C(=O)NC3CCCCC3)c3ccccc3c2=O)cc1", "Potency": "inconclusive: 2.08 µM [inhibitor, full curve]"},
      {"compound": "Cc1ccc(C2=NN(S(=O)(=O)c3ccccc3)C(c3ccccc3O)C2)cc1", "note": "(stereo unspecified)", "Potency": "inconclusive: 18.5 µM [inhibitor, single point]"},
      {"compound": "CC(=O)Nc1ccc(OC(=O)c2ccccc2OC(C)=O)cc1", "Potency": "inconclusive: 19 µM [inhibitor, single point]"},
      {"compound": "CCN(CC(=O)NCc1ccc(Cl)cc1)C(=O)c1cccc(S(=O)(=O)Nc2ccc(OC)cc2)c1", "activity change, negative = inhibition": "inactive: -1.08%"},
      {"compound": "O=C(CN1CCN(S(=O)(=O)c2ccc(F)c(Cl)c2)CC1)N1CCOCC1", "Potency": "inconclusive: 18.5 µM [inhibitor, single point]"},
      {"compound": "O=C(Nc1ccc2nc3n(c(=O)c2c1)CCCCC3)C(=O)N1CCN(c2ccccc2)CC1", "Potency": "inconclusive: 16.5 µM [inhibitor, partial curve, poor fit]"},
      {"compound": "CCc1ccc(N2C(=O)NC(=O)/C(=C/c3ccsc3)C2=O)cc1", "Potency": "inconclusive: 1.65 µM [inhibitor, full curve, poor fit]"},
      {"compound": "CC(C)CC(=O)NC(=S)Nc1ccc(CN2CCOCC2)cc1", "Potency": "inconclusive: 3.29 µM [inhibitor, partial curve, poor fit]"}
    ]}
  ]
}
